These are yes or no findings as the source states them, for the method shown.
Key:
[1] = target: Aim18p-Nd70 (S. cerevisiae) (UniProt P38884); test: SEC; HiLoad 16/600 Superdex 75 pg column; SEC buffer 50 mM NaCl, 20 mM Hepes pH 7.5, 0.3 mM TCEP; elution volume compared with ~30 kDa proteins; both purified
[2] = target: Aim46p-Nd62 (S. cerevisiae) (UniProt P38885); test: as above

Binder | binding [1] | binding [2]
Aim18p-Nd70 (domain or fragment, UniProt P38884 71-321) RDRPVQNDDKTDAFPSHTESIQVDSSVSDFPLTITALNFPVSTTFKLLGYGQRHVTFLRFKVYALGLYLAENDENLVSDTLNETYLHKYFLDVDDSKTPKENLARLLKRDDSKSVMMIDDLLDSGMRMLAKITPVRNTDFKHLKEGLVKTISKHPDVANNKDTLAKGLSELNDAFSRKGSVRKNDDLIIELLANGALQFSYHDSKNNEFEVMGVVNNQLVGKFLFSQYLCGEKSPSPQAKKTAIDKLITLL | no binding | 
Aim46p-Nd62 (domain or fragment, UniProt P38885 63-310) DDSQIKKADATSVAVDASISAFPKKMGPPQWPFSTQYELIGKGVRCVSSITFKAYGLGIYVAAEDKHLVSEVLDSKFLSQAFIDTAAPPSPENSHQDNLRAALNDPAKAPILINNLLDSGIRLMSKNTPIKAGSFKLLMDGTKKSVLKNPDSQSQDKDRLEAGFQELHDCFRSVKGLVARDDDFFIELNKDCSMNLSYYARKKDEFVILGTVKEPLIGKLLFAHYLAAVDPPSPEARKEVIDALVSLS |  | no binding

Source: article PMC9996372, “Aim18p and Aim46p are chalcone isomerase domain–containing mitochondrial hemoproteins in Saccharomyces cerevisiae” (The Journal of Biological Chemistry, 2023)
